The values that follow are results of earlier work, collected in US6579860B1, “Interleukin-6 production inhibitors” (Toray Industries, Inc., priority 1998, dated 2003).

For this series, the system named is interleukin-6 concentration in serum. The conditions noted are these: administration to Paget's disease patients; Schweitzer D H. et al., J. Bone and Miner. Res. 10(6).

Regarding `NCCCC(O)(P(=O)(O)O)P(=O)(O)O` [alendronate], the “effect on interleukin-6 concentration in serum” value is listed as “increased interleukin-6 concentration in serum”.
